Measurements from the supplement of paper PMC7752906.
Structures can show the parent of a compound that is named as a salt. Some of the results follow. Single values are uncertain here, since repeats match poorly.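 About 40 Schistosoma mansoni schistosomula per well were imaged over time in bright field and compared with 0.1% DMSO wells. A drug counts as a hit if its Mahalanobis distance reaches 2.47 or more, three standard deviations above the DMSO control mean. Degeneracy is the fraction of worms scored opaque.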

test system: Schistosoma mansoni schistosomula; experiment: degeneracy (percent of somules classified as degenerate/opaque); higher = more parasite degeneration/death; extreme values may be limits of the assay; details: 10 µM; 72 h

Row | SMILES | degeneracy
1 | O=C1CCC(N2C(=O)c3ccccc3C2=O)C(=O)N1 (configuration not stated) [Thalidomide] | 0%
2 | CC(=O)OCC1=C(C(=O)O)N2C(=O)[C@@H](NC(=O)Cc3cccs3)[C@H]2SC1 [Cephalothin Sodium] | 11.1%
3 | CCOc1ccc(NC(=O)CC(C)O)cc1 (configuration not stated) [Bucetin] | 7.69%
4 | Clc1ccc(C(Cn2ccnc2)OCc2csc3c(Cl)cccc23)c(Cl)c1 (configuration not stated) [Sertaconazole Nitrate] | 85%
5 | Cc1nc2n(c(=O)c1CCN1CCC(c3noc4cc(F)ccc34)CC1)CCCC2O (configuration not stated) [Paliperidone] | 6.67%
6 | CCCCc1nc(Cl)c(CO)n1Cc1ccc(-c2ccccc2-c2nnn[nH]2)cc1 [Losartan, Losartan Potassium] | 2.94%
7 | Cc1cccc(Nc2ccccc2C(=O)O)c1C [Mefenamic Acid] | 9.52%
8 | O=C(O)CCNC(=O)c1ccc(/N=N/c2ccc(O)c(C(=O)O)c2)cc1 [Balsalazide] | 3.85%
9 | C[C@H]1[C@H](OC(=O)CCC(=O)O)O[C@@H]2O[C@@]3(C)CC[C@H]4[C@H](C)CC[C@@H]1[C@@]24OO3 [Artesunate] | 4.76%
10 | O=C1OC(CN2CCOCC2)CN1/N=C/c1ccc([N+](=O)[O-])o1 (configuration not stated) [Furaltadone] | 12.1%
11 | CC[n+]1c(-c2ccccc2)c2cc(N)ccc2c2ccc(N)cc21 [Homidium Bromide] | 100%
12 | CNCCCN1c2ccccc2CCc2ccccc21 [Desipramine] | 100%
13 | COC(=O)C1=C(C)NC(C)=C(C(=O)OCC(C)C)C1c1ccccc1[N+](=O)[O-] (configuration not stated) [Nisoldipine] | 4.65%
14 | COC(=O)C1=C(C)NC(C)=C(C(=O)OCCN(C)Cc2ccccc2)C1c1cccc([N+](=O)[O-])c1 (configuration not stated) [nicardipine] | 6.9%
15 | CN1CCN(c2c(F)cc3c(=O)c(C(=O)O)cn4c3c2SCC4)CC1 [Rufloxacin Hydrochloride] | 8.82%
16 | Cc1ccccc1C(OCCN(C)C)c1ccccc1 (configuration not stated) [Orphenadrine] | 15.8%
17 | O=C1CCc2ccc(OCCCCN3CCN(c4cccc(Cl)c4Cl)CC3)cc2N1 [aripiprazole] | 100%
18 | CN(C)CCOC(c1ccc(Cl)cc1)c1ccccn1 (configuration not stated) [Carbinoxamine] | 9.09%
19 | COc1c2ccoc2cc2oc(=O)ccc12 [Bergapten] | 18.2%
20 | CCN(CC)CCOc1ccc(C(=C(Cl)c2ccccc2)c2ccccc2)cc1 [clomiphene] | 100%
21 | CCCCCOC(=O)Nc1nc(=O)n([C@@H]2O[C@H](C)[C@@H](O)[C@H]2O)cc1F [Capecitabine] | 0%
22 | CCCCNc1ccc(C(=O)OCCN(C)C)cc1 [Tetracaine] | 17.9%
23 | CN1CCOC(c2ccccc2)c2ccccc2C1 (configuration not stated) [Nefopam] | 2.38%
24 | CN1CCC(=C2c3ccccc3CCc3sccc32)CC1 [Pizotyline Malate] | 12.5%
25 | O=C(O)COCCN1CCN([C@H](c2ccccc2)c2ccc(Cl)cc2)CC1 [Levocetirizine Dihydrochloride] | 7.41%
26 | O=C1[C@H](CC[C@H](O)c2ccc(F)cc2)[C@@H](c2ccc(O)cc2)N1c1ccc(F)cc1 [Ezetimibe] | 88.9%

Row | SMILES | degeneracy
27 | O=S(=O)(O)c1cc(I)c(O)c2ncccc12 [Chiniofon] | 2.27%
28 | CC(O)(P(=O)(O)O)P(=O)(O)O [Etidronate Disodium] | 2.86%
29 | OCc1ccccn1 [Piconol] | 8.11%
30 | COc1ccc(CN2CCN(C(c3ccc(F)cc3)c3ccc(F)cc3)CC2)c(OC)c1OC [lomerizine] | 47.8%
31 | COc1ccc(C(=O)c2ccccc2O)c(O)c1 [Dioxybenzone] | 100%
32 | CC1CCCC(C)N1 (configuration not stated) [Nanofin] | 0%
33 | Cc1cnc(C(=O)O)c[n+]1[O-] [Acipimox] | 5.88%
34 | CC(=O)Nc1cccc(O)c1 [3-acetamidophenol] | 0%
35 | O=C(O)C1(C(=O)O)CCC1.[NH2-].[NH2-].[Pt+2] [Carboplatin] | 12.2%
36 | CN[C@@H]1[C@H](O[C@H]2[C@H](O[C@H]3[C@H](O)[C@@H](O)[C@H](NC(=N)N)[C@@H](O)[C@@H]3NC(=N)N)O[C@@H](C)[C@]2(O)CO)O[C@@H](CO)[C@H](O)[C@H]1O [Dihydrostreptomycin Sulfate] | 29.2%
37 | NCc1ccc(S(N)(=O)=O)cc1 [Mafenide Hydrochloride] | 1.75%
38 | CC/C(=C(\c1ccccc1)c1ccc(OCCN(C)C)cc1)c1ccccc1 [tamoxifen] | 100%
39 | C=C(c1ccc(C(=O)O)cc1)c1cc2c(cc1C)C(C)(C)CCC2(C)C [Bexarotene] | 4.65%
40 | C#C[C@]1(O)CC[C@H]2[C@@H]3CCC4=C(CCC(=O)C4)[C@H]3CC[C@@]21C [Norethynodrel] | 13%
41 | CC(C)(C)NCC(O)c1cc(O)cc(O)c1 (configuration not stated) [Terbutaline] | 3.03%
42 | CCOc1ccc(NC(C)=O)cc1 [Phenacetin] | 2.56%
43 | COc1cc2ncnc(Nc3ccc(F)c(Cl)c3)c2cc1OCCCN1CCOCC1 [Gefitinib] | 100%
44 | CCCCC[C@H](O)/C=C/[C@H]1[C@H](O)CC(=O)[C@@H]1CCCCCCC(=O)O [Alprostadil] | 6.25%
45 | CC(=O)Nc1ccc(C(=O)O)cc1 [Acedoben] | 7.69%
46 | O=C(O)c1ccccc1 [Benzoic Acid] | 19.4%
47 | Cc1nc(Nc2ncc(C(=O)Nc3c(C)cccc3Cl)s2)cc(N2CCN(CCO)CC2)n1 [Dasatinib] | 0%
48 | CCN(CCO)CCCC(C)Nc1ccnc2cc(Cl)ccc12 (configuration not stated) [Hydroxychloroquine Sulfate] | 4.26%
49 | COc1ccc(CC2c3cc(OC)c(OC)cc3CC[N+]2(C)CCC(=O)OCCCCCOC(=O)CC[N+]2(C)CCc3cc(OC)c(OC)cc3C2Cc2ccc(OC)c(OC)c2)cc1OC (configuration not stated) [Atracurium Besylate] | 11.1%
50 | CC(C)(C)c1ccc(C(O)CCCN2CCC(C(O)(c3ccccc3)c3ccccc3)CC2)cc1 (configuration not stated) [terfenadine] | 100%
51 | CCCCN1CCCCC1C(=O)Nc1c(C)cccc1C (configuration not stated) [Bupivacaine Hydrochloride] | 15.2%
52 | CO/N=C1\C[C@]2(C[C@@H]3C[C@@H](C/C=C(\C)C[C@@H](C)/C=C/C=C4\CO[C@@H]5[C@H](O)C(C)=C[C@@H](C(=O)O3)[C@]45O)O2)O[C@H](/C(C)=C/C(C)C)[C@H]1C [moxidectin] | 100%

Individual results from the entries so far:
Under degeneracy, CCCCN1CCCCC1C(=O)Nc1c(C)cccc1C (configuration not stated) [Bupivacaine Hydrochloride] has the entry 15.2%
Under degeneracy, Cc1nc(Nc2ncc(C(=O)Nc3c(C)cccc3Cl)s2)cc(N2CCN(CCO)CC2)n1 [Dasatinib] has the entry 0%
Under degeneracy, COc1ccc(CN2CCN(C(c3ccc(F)cc3)c3ccc(F)cc3)CC2)c(OC)c1OC [lomerizine] has the entry 47.8%
Under degeneracy, CN[C@@H]1[C@H](O[C@H]2[C@H](O[C@H]3[C@H](O)[C@@H](O)[C@H](NC(=N)N)[C@@H](O)[C@@H]3NC(=N)N)O[C@@H](C)[C@]2(O)CO)O[C@@H](CO)[C@H](O)[C@H]1O [Dihydrostreptomycin Sulfate] has the entry 29.2%
